Measurements from US20250296994A1 (SYSMEX, published 2025).
No constants are given. Whether binding was seen depends on the method and setting. Some results given as binding are weak or reduced against the parent protein; the word gives no strength.

Tests used:
[1] = molecular target: T1, human Crtac1B (cartilage acidic protein 1B), full length (human) (UniProt Q9NQ79); test: immunoprecipitation from human CSF and serum on protein G magnetic particles, then immunoblotting (Wes)
T1 sequence: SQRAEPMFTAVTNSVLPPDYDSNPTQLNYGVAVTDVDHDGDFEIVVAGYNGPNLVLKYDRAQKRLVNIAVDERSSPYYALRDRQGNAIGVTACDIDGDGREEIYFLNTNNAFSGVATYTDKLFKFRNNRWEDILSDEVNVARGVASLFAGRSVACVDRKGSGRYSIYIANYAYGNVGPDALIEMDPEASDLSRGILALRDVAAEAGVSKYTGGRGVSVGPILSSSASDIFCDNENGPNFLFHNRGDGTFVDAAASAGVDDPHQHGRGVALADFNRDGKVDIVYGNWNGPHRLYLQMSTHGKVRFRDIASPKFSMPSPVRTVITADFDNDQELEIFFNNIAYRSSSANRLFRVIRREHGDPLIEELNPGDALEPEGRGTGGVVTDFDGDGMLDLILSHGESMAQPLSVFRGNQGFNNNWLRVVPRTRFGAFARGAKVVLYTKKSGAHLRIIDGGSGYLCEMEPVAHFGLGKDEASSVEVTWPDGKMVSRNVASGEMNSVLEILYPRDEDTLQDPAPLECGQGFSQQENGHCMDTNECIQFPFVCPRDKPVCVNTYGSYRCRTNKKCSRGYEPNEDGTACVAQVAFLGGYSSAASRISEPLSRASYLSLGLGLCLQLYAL

[2] = molecular target: T2, recombinant Crtac1B fragment #4 (human) (UniProt Q9NQ79); test: antigen immobilized ELISA, hybridoma culture supernatant
T2 sequence: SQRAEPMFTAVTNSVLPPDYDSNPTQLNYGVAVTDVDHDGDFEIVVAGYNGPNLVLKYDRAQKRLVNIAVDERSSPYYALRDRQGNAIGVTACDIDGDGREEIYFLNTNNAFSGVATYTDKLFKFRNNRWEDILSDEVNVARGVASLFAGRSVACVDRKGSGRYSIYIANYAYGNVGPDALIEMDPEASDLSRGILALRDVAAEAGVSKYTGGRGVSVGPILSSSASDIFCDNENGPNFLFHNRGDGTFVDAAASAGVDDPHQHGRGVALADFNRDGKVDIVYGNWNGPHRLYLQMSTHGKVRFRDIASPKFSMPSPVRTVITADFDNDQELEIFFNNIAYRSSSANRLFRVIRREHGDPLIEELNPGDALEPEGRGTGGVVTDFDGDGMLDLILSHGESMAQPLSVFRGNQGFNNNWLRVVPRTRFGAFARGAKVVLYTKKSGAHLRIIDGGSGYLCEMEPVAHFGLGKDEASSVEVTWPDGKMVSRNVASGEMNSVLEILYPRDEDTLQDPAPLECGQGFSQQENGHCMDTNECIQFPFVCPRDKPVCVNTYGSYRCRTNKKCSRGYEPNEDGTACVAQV

[3] = molecular target: T3, recombinant Crtac1B fragment #3 (human) (UniProt Q9NQ79); test: as above
T3 sequence: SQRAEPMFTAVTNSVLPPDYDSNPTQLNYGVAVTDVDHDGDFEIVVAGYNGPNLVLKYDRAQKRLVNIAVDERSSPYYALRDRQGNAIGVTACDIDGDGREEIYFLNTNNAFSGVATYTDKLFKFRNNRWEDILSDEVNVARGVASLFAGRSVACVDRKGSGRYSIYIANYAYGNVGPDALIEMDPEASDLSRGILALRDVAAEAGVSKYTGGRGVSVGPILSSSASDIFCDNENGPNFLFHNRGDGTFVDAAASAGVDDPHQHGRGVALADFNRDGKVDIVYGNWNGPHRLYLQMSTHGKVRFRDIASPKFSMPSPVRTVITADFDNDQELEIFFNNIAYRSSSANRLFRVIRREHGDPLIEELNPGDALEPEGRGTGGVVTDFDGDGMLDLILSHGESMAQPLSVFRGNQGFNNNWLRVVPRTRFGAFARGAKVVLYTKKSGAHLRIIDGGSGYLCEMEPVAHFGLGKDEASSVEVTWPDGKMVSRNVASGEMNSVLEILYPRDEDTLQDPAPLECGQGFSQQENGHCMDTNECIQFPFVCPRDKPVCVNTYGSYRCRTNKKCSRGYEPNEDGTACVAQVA

[4] = molecular target: T4, recombinant Crtac1B fragment #1 (human) (UniProt Q9NQ79); test: as above
T4 sequence: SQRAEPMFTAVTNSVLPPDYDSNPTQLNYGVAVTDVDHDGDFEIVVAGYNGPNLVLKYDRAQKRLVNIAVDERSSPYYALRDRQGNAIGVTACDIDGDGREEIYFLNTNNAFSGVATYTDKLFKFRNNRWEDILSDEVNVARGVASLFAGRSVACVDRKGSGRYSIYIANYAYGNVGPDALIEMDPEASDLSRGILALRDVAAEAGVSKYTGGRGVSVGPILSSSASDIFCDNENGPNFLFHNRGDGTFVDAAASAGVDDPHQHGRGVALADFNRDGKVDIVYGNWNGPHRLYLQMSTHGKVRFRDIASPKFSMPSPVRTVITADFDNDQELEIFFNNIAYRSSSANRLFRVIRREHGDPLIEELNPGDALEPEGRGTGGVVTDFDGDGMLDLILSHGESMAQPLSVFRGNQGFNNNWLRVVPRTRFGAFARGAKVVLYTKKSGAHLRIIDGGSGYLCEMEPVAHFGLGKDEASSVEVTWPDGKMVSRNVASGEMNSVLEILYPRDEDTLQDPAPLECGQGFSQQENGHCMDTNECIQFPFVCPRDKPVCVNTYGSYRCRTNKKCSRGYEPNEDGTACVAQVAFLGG

[5] = molecular target: T5, recombinant Crtac1B fragment #2 (human) (UniProt Q9NQ79); test: as above
T5 sequence: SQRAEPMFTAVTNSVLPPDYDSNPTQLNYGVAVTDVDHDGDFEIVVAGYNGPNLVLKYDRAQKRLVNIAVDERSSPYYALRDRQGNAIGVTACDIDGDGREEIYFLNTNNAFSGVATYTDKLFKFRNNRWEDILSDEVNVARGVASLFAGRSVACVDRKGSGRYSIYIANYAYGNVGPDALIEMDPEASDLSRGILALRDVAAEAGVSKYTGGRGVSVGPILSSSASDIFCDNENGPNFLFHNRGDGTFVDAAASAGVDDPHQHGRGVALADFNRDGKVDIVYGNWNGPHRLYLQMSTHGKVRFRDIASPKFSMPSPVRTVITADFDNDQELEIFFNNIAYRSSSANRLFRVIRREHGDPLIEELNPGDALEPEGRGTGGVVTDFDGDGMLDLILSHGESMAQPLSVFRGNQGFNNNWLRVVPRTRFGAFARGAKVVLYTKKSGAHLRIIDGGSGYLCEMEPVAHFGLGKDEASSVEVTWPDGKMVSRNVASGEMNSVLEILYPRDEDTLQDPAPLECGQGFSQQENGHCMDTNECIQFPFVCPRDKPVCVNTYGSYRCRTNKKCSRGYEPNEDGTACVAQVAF

binding [1]: binds
binding [2]: binds
binding [3]: binds
binding [4]: binds
binding [5]: binds
B1: monoclonal antibody derived from the hybridoma of clone 1B4 (antibody, mouse IgG1, kappa, V domains shown)
VH: EVQLQQFGAELVKPGASVKISCKASGYTFTDYNMDWVKQSHGKSLEWIGDINPNYDSSSYNQKFKGKATLTVDKSSSTAYMELRSLTSEDTAVYYCTRSGGTYWGQGTLVTVSA
VL: DIQMNQSPSSLSASLGDTITITCHASQNINVWLSWYQQKPGNIPKLLIYKASNLHTGVPSRFSGSGSGTGFSLTISSLQPEDIATYYCQQAQSYPRTFGGGTKLEIKR
notes: It is kept apart because the two clones were tested separately; Mouse IgG1; Leader ranges were derived as for m1
